According to the supplement of paper PMC12819154, “High-throughput peptide-centric local stability assay extends protein–ligand identification to membrane proteins, tissues and bacteria” (Nature Structural & Molecular Biology, 2025):
This is one part of the list. Small differences around the control level are noise.

By UniProt entry, the sequences of proteins in these tests, tags left out. Where a name states a change or a piece, a line headed by the entry shows the natural chain unless it says otherwise.
UniProt Q3UHH8: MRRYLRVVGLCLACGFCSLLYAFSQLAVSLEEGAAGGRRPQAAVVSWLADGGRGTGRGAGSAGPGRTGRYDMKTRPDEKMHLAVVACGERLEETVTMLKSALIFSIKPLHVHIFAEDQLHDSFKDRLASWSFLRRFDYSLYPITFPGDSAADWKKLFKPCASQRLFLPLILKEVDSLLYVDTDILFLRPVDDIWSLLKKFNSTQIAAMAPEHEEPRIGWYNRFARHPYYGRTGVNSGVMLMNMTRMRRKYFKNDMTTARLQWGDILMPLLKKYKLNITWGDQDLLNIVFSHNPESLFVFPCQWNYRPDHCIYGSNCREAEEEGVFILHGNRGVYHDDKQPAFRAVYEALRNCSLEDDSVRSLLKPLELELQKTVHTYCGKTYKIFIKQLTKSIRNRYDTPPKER
UniProt Q3UD01: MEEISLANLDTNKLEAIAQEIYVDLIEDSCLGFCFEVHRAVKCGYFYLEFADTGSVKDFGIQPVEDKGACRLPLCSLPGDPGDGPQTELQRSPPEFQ
UniProt Q3U4I7: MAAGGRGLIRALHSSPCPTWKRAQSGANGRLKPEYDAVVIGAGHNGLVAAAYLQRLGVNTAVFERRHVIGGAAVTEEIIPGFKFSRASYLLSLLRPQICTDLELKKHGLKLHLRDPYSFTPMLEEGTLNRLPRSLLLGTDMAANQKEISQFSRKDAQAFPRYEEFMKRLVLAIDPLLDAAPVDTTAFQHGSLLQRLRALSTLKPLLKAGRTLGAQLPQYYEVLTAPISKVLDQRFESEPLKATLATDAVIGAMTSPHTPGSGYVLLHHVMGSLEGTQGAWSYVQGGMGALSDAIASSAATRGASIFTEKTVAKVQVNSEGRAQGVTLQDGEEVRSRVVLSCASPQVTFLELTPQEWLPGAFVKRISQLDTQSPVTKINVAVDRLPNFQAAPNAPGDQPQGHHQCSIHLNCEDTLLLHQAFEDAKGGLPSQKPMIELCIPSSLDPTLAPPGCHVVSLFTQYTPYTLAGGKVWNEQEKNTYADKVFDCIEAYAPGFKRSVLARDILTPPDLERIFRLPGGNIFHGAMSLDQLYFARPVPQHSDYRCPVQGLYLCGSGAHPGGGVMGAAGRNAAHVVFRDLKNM
UniProt Q3UFY8: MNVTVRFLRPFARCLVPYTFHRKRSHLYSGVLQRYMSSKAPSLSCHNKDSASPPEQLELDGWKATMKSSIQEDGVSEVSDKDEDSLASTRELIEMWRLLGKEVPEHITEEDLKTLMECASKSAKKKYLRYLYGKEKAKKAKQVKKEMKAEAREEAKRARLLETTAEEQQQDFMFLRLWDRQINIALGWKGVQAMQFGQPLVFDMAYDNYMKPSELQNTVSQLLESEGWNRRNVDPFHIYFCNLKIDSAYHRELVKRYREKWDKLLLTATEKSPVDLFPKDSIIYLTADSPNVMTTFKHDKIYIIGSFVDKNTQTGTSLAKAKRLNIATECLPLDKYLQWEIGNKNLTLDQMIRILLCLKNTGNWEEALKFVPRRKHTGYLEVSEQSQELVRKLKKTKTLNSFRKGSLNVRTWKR
UniProt Q4QQM4: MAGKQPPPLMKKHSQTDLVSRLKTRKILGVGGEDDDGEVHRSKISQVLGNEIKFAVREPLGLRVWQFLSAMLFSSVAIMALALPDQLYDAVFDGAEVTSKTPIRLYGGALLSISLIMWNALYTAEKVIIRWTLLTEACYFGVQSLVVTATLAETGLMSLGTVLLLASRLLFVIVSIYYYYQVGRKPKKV
UniProt Q497V6: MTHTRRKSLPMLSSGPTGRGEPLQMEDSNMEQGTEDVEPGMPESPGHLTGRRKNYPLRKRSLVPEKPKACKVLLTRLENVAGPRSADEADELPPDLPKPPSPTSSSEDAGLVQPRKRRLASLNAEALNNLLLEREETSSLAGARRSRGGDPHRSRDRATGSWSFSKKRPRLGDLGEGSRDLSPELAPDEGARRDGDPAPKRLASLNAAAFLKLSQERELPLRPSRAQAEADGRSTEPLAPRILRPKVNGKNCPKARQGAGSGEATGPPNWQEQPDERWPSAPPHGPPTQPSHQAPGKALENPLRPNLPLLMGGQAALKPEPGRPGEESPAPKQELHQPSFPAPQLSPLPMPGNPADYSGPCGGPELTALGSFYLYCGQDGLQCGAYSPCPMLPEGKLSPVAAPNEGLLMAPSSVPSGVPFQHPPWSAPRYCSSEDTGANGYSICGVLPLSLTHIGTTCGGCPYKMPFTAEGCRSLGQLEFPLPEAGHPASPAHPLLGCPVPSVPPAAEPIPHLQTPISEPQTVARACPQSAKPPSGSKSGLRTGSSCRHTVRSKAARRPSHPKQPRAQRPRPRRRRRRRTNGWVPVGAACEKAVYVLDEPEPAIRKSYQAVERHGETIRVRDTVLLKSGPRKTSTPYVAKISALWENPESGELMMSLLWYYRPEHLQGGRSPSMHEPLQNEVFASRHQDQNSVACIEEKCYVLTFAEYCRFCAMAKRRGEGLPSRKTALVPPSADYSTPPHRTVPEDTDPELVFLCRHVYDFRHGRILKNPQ
UniProt Q3V0J1: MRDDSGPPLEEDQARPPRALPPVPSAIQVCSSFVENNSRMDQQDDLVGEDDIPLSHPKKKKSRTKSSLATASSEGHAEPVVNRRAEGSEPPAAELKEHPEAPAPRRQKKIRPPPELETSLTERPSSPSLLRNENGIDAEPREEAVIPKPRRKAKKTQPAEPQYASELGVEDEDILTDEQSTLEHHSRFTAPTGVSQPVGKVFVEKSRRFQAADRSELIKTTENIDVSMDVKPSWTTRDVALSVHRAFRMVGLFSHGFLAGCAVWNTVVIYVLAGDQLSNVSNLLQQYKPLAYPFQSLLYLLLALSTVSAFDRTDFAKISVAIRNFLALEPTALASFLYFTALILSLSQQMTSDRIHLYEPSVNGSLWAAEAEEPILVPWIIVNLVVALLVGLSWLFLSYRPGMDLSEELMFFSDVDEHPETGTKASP
UniProt Q3UDW8: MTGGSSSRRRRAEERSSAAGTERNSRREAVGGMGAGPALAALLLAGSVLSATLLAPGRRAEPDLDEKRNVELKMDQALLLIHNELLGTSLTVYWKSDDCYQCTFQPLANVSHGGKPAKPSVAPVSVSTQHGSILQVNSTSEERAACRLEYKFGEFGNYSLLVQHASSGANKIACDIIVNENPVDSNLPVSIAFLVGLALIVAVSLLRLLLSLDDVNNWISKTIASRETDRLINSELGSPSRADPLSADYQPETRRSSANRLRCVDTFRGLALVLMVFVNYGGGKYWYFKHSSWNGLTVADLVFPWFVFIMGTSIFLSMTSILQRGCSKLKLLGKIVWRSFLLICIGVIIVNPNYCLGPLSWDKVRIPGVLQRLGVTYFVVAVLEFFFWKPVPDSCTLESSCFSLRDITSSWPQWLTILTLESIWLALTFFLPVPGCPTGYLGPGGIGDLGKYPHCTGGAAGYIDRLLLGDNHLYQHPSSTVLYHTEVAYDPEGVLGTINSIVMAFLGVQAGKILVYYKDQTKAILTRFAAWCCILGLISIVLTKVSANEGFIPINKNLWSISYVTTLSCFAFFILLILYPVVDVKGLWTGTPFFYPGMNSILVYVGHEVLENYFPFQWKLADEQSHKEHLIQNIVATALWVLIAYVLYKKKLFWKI
UniProt Q3U9G9: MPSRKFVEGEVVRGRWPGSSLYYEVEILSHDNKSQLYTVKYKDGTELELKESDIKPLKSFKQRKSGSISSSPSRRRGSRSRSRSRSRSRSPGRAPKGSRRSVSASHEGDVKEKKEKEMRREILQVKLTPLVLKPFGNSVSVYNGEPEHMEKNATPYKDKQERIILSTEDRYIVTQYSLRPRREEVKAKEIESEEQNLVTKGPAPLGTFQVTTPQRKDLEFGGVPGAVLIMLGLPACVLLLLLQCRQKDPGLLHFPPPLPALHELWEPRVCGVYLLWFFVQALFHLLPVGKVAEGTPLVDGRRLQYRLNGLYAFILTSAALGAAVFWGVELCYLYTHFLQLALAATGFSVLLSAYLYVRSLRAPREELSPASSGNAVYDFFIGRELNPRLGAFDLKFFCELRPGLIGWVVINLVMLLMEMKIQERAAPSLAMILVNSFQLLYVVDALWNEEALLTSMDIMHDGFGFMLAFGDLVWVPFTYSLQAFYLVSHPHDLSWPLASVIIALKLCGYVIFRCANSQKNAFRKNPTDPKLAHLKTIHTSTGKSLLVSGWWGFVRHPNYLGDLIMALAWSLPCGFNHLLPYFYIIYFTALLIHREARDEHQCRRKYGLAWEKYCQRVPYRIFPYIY
UniProt Q571I9: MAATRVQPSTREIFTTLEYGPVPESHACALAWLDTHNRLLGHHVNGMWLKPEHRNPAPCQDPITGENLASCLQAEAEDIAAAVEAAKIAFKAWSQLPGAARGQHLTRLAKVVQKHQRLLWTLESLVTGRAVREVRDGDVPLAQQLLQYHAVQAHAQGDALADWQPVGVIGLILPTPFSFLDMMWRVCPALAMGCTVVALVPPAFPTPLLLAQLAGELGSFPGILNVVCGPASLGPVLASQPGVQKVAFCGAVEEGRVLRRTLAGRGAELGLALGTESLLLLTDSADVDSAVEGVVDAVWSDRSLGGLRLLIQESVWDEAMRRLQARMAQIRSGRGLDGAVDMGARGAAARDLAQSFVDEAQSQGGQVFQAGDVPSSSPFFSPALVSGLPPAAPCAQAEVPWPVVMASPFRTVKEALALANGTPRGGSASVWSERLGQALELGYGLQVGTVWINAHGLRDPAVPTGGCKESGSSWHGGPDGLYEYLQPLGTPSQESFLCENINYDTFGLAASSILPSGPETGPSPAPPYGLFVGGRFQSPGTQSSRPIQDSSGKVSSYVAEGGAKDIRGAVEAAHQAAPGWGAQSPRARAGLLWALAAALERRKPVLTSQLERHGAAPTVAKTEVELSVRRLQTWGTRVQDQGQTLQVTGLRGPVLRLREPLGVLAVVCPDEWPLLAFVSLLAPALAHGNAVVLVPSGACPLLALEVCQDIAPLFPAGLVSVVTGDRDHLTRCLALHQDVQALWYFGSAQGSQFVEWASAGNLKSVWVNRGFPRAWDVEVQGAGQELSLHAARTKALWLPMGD
UniProt Q3UJV1: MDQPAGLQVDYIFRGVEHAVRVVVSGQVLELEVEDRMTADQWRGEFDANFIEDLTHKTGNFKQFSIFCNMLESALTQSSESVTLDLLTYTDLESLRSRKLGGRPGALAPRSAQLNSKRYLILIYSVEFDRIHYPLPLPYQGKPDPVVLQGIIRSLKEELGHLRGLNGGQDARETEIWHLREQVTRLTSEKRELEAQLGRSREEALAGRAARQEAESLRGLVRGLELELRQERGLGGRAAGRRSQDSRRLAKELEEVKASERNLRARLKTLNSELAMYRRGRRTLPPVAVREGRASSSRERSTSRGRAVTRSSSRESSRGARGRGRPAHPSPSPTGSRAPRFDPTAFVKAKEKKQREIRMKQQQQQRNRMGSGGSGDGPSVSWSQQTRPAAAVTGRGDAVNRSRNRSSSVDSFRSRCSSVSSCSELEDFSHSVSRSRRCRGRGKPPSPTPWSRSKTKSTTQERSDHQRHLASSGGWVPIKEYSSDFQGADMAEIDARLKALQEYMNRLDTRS
UniProt Q3US41: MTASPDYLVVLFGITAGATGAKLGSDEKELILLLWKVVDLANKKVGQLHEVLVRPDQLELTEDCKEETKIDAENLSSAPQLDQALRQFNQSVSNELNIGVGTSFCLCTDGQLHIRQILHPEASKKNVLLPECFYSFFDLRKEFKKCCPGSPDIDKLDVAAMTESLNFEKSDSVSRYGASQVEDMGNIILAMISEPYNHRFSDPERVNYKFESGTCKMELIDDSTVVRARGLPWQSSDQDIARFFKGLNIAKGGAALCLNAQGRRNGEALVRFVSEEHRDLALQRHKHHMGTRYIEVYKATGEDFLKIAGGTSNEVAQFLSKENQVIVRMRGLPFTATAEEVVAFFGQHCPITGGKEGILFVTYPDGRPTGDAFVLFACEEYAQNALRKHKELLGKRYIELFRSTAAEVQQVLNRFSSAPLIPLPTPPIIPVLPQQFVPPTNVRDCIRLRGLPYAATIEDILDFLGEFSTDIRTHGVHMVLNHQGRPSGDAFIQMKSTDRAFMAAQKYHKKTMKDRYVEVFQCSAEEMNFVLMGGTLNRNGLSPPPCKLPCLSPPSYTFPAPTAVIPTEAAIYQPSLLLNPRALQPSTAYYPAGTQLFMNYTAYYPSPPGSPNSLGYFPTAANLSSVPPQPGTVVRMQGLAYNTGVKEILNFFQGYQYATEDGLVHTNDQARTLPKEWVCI
UniProt Q3V4B5: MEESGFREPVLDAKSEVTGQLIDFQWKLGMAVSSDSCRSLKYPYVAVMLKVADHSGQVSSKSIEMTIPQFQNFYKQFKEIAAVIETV
UniProt Q4KL35: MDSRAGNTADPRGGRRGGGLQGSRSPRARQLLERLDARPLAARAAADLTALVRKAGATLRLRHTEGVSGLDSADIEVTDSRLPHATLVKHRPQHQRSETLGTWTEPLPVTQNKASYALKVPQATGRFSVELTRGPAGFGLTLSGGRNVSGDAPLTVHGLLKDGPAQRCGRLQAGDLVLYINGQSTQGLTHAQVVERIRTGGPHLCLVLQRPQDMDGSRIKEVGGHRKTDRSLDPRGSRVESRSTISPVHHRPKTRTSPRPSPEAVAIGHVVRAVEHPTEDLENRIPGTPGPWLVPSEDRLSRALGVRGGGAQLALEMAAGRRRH

What follows are targets tested with CN[C@@H]1C[C@H]2O[C@@](C)([C@@H]1OC)n1c3ccccc3c3c4c(c5c6ccccc6n2c5c31)C(=O)NC4 [staurosporine] (assay: log2 fold change of tryptic peptide abundance, ligand vs vehicle (limited proteolysis) (log2 ratio); higher = more trypsin-susceptible (destabilized)). Settings: ligand concentration: 20 uM; sample: mouse liver crude lysate; replicate design: treated separately.
In the case of “UniProt Q4ACU6 (peptide sequence: SPTPVHSPDADRPGPLFVDVQTR, peptide start residue: 1128)”, the log2 fold change was 0.329.
With “UniProt Q4VBD2 (peptide sequence: FTICGNRID, peptide start residue: 556)” the log2 fold change was 0.244.
“UniProt Q3UHH8 (peptide sequence: GVYHDDKQPAFR, peptide start residue: 332)” gave a log2 fold change of -0.215.
In the case of “UniProt Q3UD01 (peptide sequence: DFGIQPVEDKGACR, peptide start residue: 58)”, the log2 fold change was -0.201.
“UniProt Q3UGF1 (peptide sequence: IHLQYAK, peptide start residue: 897)” gave a log2 fold change of -0.401.
“UniProt Q3ULB5 (peptide sequence: RELLFNEVVIMR, peptide start residue: 362)” showed a log2 fold change of -0.686.
“UniProt Q3UW53 (peptide sequence: NDFAVESYESK, peptide start residue: 95)” gave a log2 fold change of -0.27.
“UniProt Q3U4I7 (peptide sequence: ALSTLKPLLK, peptide start residue: 198)” showed a log2 fold change of 0.0503.
“UniProt Q3UZA1 (peptide sequence: ETPASKPTR, peptide start residue: 36)” was tested, and the log2 fold change was -0.201.
“UniProt Q3UFY8 (peptide sequence: ELIEMWR, peptide start residue: 91)” gave a log2 fold change of -0.198.
Target “UniProt Q3UPL0 (peptide sequence: NVWSFLK, peptide start residue: 471)” has a log2 fold change of -0.18.
Work on “UniProt Q501J2 (peptide sequence: AGCSASVCYHR, peptide start residue: 121)” yielded a log2 fold change of 0.884.
With “UniProt Q499X9 (peptide sequence: EADISSTDFIR, peptide start residue: 120)” the log2 fold change was -0.639.
“UniProt Q4QQM4 (peptide sequence: KHSQTDLVSR, peptide start residue: 12)” gave a log2 fold change of -0.401.
Target “UniProt Q5DTT3 (peptide sequence: DAPVPTNTKR, peptide start residue: 425)” has a log2 fold change of -0.766.
With “UniProt Q505D7 (peptide sequence: QVSKPLANR, peptide start residue: 18)” the log2 fold change was -0.0979.
For “UniProt Q497V6 (peptide sequence: SLVPEKPK, peptide start residue: 61)”, the log2 fold change was -0.328.
Target “UniProt Q3V0J1 (peptide sequence: FTAPTGVSQPVGK, peptide start residue: 188)” has a log2 fold change of -0.284.
Work on “UniProt Q3UDW8 (peptide sequence: ADPLSADYQPETRR, peptide start residue: 242)” yielded a log2 fold change of 0.11.
For “UniProt Q3UH06 (peptide sequence: IKQEITEGDLK, peptide start residue: 612)”, the log2 fold change was 0.369.
In the case of “UniProt Q3U9G9 (peptide sequence: YGLAWEK, peptide start residue: 606)”, the log2 fold change was 0.292.
“UniProt Q571I9 (peptide sequence: RKPVLTSQLER, peptide start residue: 602)” was tested, and the log2 fold change was -0.611.
“UniProt Q3UMB9 (peptide sequence: EIKDQNDHKYPFDR, peptide start residue: 875)” gave a log2 fold change of 0.169.
With “UniProt Q3V0C5 (peptide sequence: ALCKDCVVER, peptide start residue: 551)” the log2 fold change was -0.598.
“UniProt Q3UM45 (peptide sequence: LTMLDIASNR, peptide start residue: 277)” showed a log2 fold change of -0.503.
For “UniProt Q571I4 (peptide sequence: GGCGSPSLQCR, peptide start residue: 881)”, the log2 fold change was -0.178.
For “UniProt Q3UJV1 (peptide sequence: FDPTAFVK, peptide start residue: 341)”, the log2 fold change was 0.265.
“UniProt Q3ULA2 (peptide sequence: LANGTSSMIVPK, peptide start residue: 111)” gave a log2 fold change of 0.176.
For “UniProt Q3US41 (peptide sequence: STAAEVQQVLNR, peptide start residue: 426)”, the log2 fold change was 0.0634.
In the case of “UniProt Q3UVU3 (peptide sequence: EQGQTLSK, peptide start residue: 450)”, the log2 fold change was 0.15.
Work on “UniProt Q3V4B5 (peptide sequence: SLKYPYVAVMLK, peptide start residue: 39)” yielded a log2 fold change of 0.084.
With “UniProt Q3V0K9 (peptide sequence: AYFHLLNQIAPK, peptide start residue: 301)” the log2 fold change was -0.445.
“UniProt Q4U4S6 (peptide sequence: SKGNYDEGFGHK, peptide start residue: 446)” was tested, and the log2 fold change was -0.139.
“UniProt Q4KL35 (peptide sequence: LDARPLAAR, peptide start residue: 35)” gave a log2 fold change of 0.155.
“UniProt Q3UNZ8 (peptide sequence: INDAFLHVMQR, peptide start residue: 329)” showed a log2 fold change of 0.132.
For “UniProt Q3URQ7 (peptide sequence: LRTGLFNK, peptide start residue: 90)”, the log2 fold change was -0.413.
